# The campaign covered roughly 390,000 compounds. About 4,000 (1%) were called active. Inconclusive results, whose numbers are uncertain, are shown with a selection of clear calls. Calls come from the whole dose curve; as a rule, active = well fitted inhibition curve with a large enough effect; inconclusive = small, poorly fitted or top-dose-only effect, or another doubt; inactive = no such curve, though single readings can be large or run the other way. A potency beside an inconclusive call is a rough fit, not a confirmed value.
# Chains of the proteins cited; added tags and fusions are not shown. Lines headed by an entry give the natural chain unless they say otherwise; changes in a name come on top.
# UniProt Q9UNA4: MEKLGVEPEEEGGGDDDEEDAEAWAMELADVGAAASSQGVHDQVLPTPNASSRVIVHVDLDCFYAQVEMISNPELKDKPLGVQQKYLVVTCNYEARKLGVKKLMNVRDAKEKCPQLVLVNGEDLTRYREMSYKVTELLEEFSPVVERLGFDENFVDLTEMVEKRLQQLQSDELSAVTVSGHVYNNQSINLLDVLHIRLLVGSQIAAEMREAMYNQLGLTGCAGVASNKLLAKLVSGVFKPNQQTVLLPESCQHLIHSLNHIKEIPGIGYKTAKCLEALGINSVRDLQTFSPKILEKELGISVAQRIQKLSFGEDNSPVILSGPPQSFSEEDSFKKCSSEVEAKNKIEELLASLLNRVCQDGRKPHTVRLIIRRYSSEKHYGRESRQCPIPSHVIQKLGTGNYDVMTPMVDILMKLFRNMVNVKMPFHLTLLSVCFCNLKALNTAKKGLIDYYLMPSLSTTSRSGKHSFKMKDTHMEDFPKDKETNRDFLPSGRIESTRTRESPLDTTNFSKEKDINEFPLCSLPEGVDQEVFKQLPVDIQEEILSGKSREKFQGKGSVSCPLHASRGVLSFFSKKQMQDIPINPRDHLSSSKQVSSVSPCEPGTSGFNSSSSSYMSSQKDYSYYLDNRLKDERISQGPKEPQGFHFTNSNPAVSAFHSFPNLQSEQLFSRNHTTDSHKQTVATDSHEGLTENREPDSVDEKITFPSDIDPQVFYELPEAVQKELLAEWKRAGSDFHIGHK
# Target: DNA polymerase iota (Homo sapiens) (UniProt Q9UNA4)
# Test: qHTS for Inhibitors of Polymerase Iota
# Conditions: Pol iota fluorescent replication assay, 10 min; series mostly up to 115 µM; activity, negative = inhibition: at the top concentration
# Method in brief: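 Pol iota at 10 nM preincubated 15 min with compounds at room temperature; reaction started with fluorescent substrate, 50 nM final. Fluorescence read kinetically at 0 and 10 min; buffer-only wells as negative control.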
# Potency is the fitted concentration of half-maximal effect.
SMILES,"activity, negative = inhibition",Potency
COc1ccc(-c2nnc(SCC(=O)NCCc3ccc(OC)c(OC)c3)nc2-c2ccc(OC)cc2)cc1,inactive: -9.82%,
COc1cc(/C=N/NC(=O)CC#N)cc(Br)c1O,,active: 44.7 µM
COc1cc(/C=C(\NC(C)=O)C(=O)O)cc(OC)c1OC,inactive: 10.7%,
CC(C)(C)OC(=O)N(CCc1ccccc1)Cc1cccc(OCc2cccc(NC(=O)c3ccccc3)c2)c1,inactive: -9.7%,
CC1=Nc2cc(C(=O)NCc3ccccc3Cl)ccc2Sc2c(C)ccc(C)c21,inactive: 19.1%,
O=C(CN1C(=O)C(c2ccc(F)cc2)=NC12CCCCCC2)Nc1ccccc1Cl,inactive: 9.7%,
Cc1ccccc1-c1cc2c(nn1)-c1ccccc1C2=O,,active: 15.8 µM
Cc1cc([N+](=O)[O-])nn1CC(=O)N1CCCc2ccccc21,inactive: 9.57%,
CCC(c1nnnn1Cc1ccc2c(c1)OCO2)N1CCN(c2ccc(OC)cc2)CC1 (centres undefined),,"inconclusive: 39.8 µM [inhibitor, single point]"
CC(C)c1ccc(S(=O)(=O)c2ccc(NN)cc2)cc1,inactive: -1.61%,
COC(=O)c1cc2oc3ccccc3c2n1Cc1nc(-c2ccc(Cl)cc2)oc1C,inactive: 0.444%,
CCN(C(=O)Cn1nnc2sc3c(c2c1=O)CCC(C(C)(C)C)C3)c1cccc(C)c1 (centres undefined),inactive: 29.3%,
CC1=NN(c2ccccc2)C(=O)/C1=C/c1ccc(-c2ccc(C)c(C(=O)O)c2)o1,,"inconclusive: 7.94 µM [inhibitor, full curve, poor fit]"
C(=C\n1nnc2ccccc21)/c1ccc[nH]1,,"inconclusive: 14.1 µM [inhibitor, full curve, poor fit]"
O=C(O)CC1(CC(=O)N2CCOCC2)CCCC1,inactive: 36.5%,
O=C(COC(=O)c1cc[n+]([O-])cc1)Nc1ccc(SC(F)F)cc1,,"inconclusive: 89.1 µM [inhibitor, single point]"
COc1ccc(C(C(=O)NC(C)(C)C)N(Cc2ccc(C)cc2)C(=O)CCC(=O)Nc2cc(C)on2)cc1 (centres undefined),,"inconclusive: 63.1 µM [inhibitor, single point]"
CC(C)(C)NC(=S)NCc1cccnc1,,"inconclusive: 63.1 µM [inhibitor, partial curve, poor fit]"
CC(C)(C)C(=O)Oc1cc(N)n(S(=O)(=O)c2ccccc2)n1,,"inconclusive: 56.2 µM [inhibitor, partial curve, poor fit]"
O=C1c2cc([N+](=O)[O-])cc3cc([N+](=O)[O-])cc(c23)C(=O)N1c1ccccn1,,"inconclusive: 14.1 µM [inhibitor, full curve, poor fit]"
COC(=O)COc1ccc(NC(=O)C(c2ccccc2)c2ccccc2)cc1,,"inconclusive: 79.4 µM [inhibitor, partial curve, poor fit]"
O=C(Nc1cccc(S(=O)(=O)N2CCOCC2)c1)C1CCCCN1S(=O)(=O)c1ccccc1 (centres undefined),,"inconclusive: 89.1 µM [inhibitor, single point]"
Cn1c2c(sc1=O)CCC2,inactive: 10.7%,

# Rewritten with bars between the fields: 6 of the compounds above
SMILES | activity, negative = inhibition | Potency
COc1cc(/C=C(\NC(C)=O)C(=O)O)cc(OC)c1OC | inactive: 10.7% | 
CC(C)(C)OC(=O)N(CCc1ccccc1)Cc1cccc(OCc2cccc(NC(=O)c3ccccc3)c2)c1 | inactive: -9.7% | 
CC1=Nc2cc(C(=O)NCc3ccccc3Cl)ccc2Sc2c(C)ccc(C)c21 | inactive: 19.1% | 
O=C(CN1C(=O)C(c2ccc(F)cc2)=NC12CCCCCC2)Nc1ccccc1Cl | inactive: 9.7% | 
Cc1ccccc1-c1cc2c(nn1)-c1ccccc1C2=O |  | active: 15.8 µM
Cc1cc([N+](=O)[O-])nn1CC(=O)N1CCCc2ccccc21 | inactive: 9.57% | 

# Next part

SMILES,"activity, negative = inhibition",Potency
COc1ccc(-c2nn(-c3ccccc3)cc2C2CC(c3cccs3)=NN2C(=O)CCCC(=O)O)cc1 (centres undefined),inactive: -0.908%,
Nc1c(C(=O)O)ccc2c1C(=O)c1ccccc1C2=O,,"inconclusive: 20 µM [inhibitor, partial curve, poor fit]"
COc1cccc(-n2c(=O)c3sc4ccccc4c3n(CC(=O)NC3CCCCC3)c2=O)c1,inactive: 15.4%,
CC(=O)NC1C(=O)N=C(SCC(=O)NC2CCCCC2)NC1=O (centres undefined),,"inconclusive: 2.82 µM [inhibitor, full curve, poor fit]"
CCc1ccc(OCCn2c(CCNC(=O)C3CCCCC3)nc3ccccc32)cc1,inactive: 41.1%,
COc1ccc(C2/C=C\CN(S(=O)(=O)c3cccc4cccnc34)CC(=O)N2Cc2ccc(F)cc2)cc1 (centres undefined),,"inconclusive: 35.5 µM [inhibitor, full curve, poor fit]"
CCOC(=O)c1c(C)[nH]c(C)c1S(=O)(=O)N1CCC(C(=O)Nc2cc(Cl)ccc2OC)CC1,,"inconclusive: 39.8 µM [inhibitor, single point]"
COc1ccccc1-n1c(-c2cc(-c3ccco3)[nH]n2)n[nH]c1=S,,active: 8.91 µM
Cc1ccc(S(=O)(=O)Cc2ccc(C(=O)NC3CCCC3)o2)cc1,,"inconclusive: 79.4 µM [inhibitor, partial curve]"
O=C(Nc1ccc([N+](=O)[O-])cc1Cl)c1cc(Cl)cc(Cl)c1O,,"inconclusive: 70.8 µM [inhibitor, partial curve]"
N#CCC(=O)Nn1c(=S)[nH]c2ccccc2c1=O,,"inconclusive: 14.1 µM [inhibitor, full curve]"
COc1cc(NS(=O)(=O)c2ccc(NC(=O)C34CC5CC(CC(C5)C3)C4)cc2)ncn1,,"inconclusive: 2.51 µM [inhibitor, full curve, poor fit]"
O=C(CNC(=O)C1CCCCC1)OCc1ccccc1,inactive: -18.5%,
CCN(Cc1ccccc1)S(=O)(=O)c1ccc(C(=O)Nc2nnc(-c3ccccc3OC)o2)cc1,,"inconclusive: 39.8 µM [inhibitor, partial curve, poor fit]"
O=C(Nc1nc2c(F)cc(F)cc2s1)C1CC(=O)N(Cc2ccco2)C1 (centres undefined),,active: 28.2 µM
CN1CCc2c(sc3c2C(=O)NC(c2ccc(C(C)(C)C)cc2)N3)C1 (centres undefined),inactive: 68.4%,
O=C(Nc1cnc(N2CCN(c3ccccc3)CC2)c(C(=O)O)c1)c1cccs1,,"inconclusive: 39.8 µM [inhibitor, single point]"
CC(=O)c1ccc(S(=O)(=O)NCCC(=O)NC(C)c2ccncc2)cc1 (centres undefined),,"inconclusive: 79.4 µM [inhibitor, single point]"
CC(C)(C)C1CCc2oc3ccc(NS(=O)(=O)c4ccc(C(=O)O)cc4)cc3c2C1 (centres undefined),,"inconclusive: 70.8 µM [inhibitor, single point]"
CC(=O)N1CCc2c(sc(NC(=O)c3cccc(N4C(=O)CCC4=O)c3)c2C(N)=O)C1,,"inconclusive: 39.8 µM [inhibitor, full curve, poor fit]"
C/C=C/C(=O)N1CC2(CC(c3cccc(NC(=O)/C(C)=C/C)c3)=NO2)C[C@H]1C(N)=O (some centres undefined),,"inconclusive: 35.5 µM [inhibitor, partial curve, poor fit]"
COc1ccc(Br)cc1CN(C)C(=O)c1ccccc1OCc1c(C)noc1C,inactive: 13.9%,
Cc1onc(-c2ccccc2Cl)c1C(=O)Nc1nnc(Cc2ccc(Cl)cc2)s1,,"inconclusive: 1.58 µM [inhibitor, full curve, poor fit]"

SMILES,"activity, negative = inhibition",Potency
Cc1ccc([N+](=O)[O-])cc1S(=O)(=O)Nc1ccc(-c2ccc(N3CCCC3)nn2)cc1,,"inconclusive: 28.2 µM [inhibitor, partial curve]"
COc1ccc(OCC(O)Cn2c(NCCO)nc3c2c(=O)n(C)c(=O)n3C)cc1 (centres undefined),inactive: 15.1%,
O=c1cc(CN2CCc3ccccc32)nc2sccn12,,"inconclusive: 1.26 µM [inhibitor, full curve, poor fit]"
CCOc1ccc(NS(=O)(=O)c2ccc3c(c2)CCCN3C(=O)C2CCC2)cc1,inactive: -0.224%,
COC(=O)[C@]1(C)N[C@H](CN(C)S(=O)(=O)c2ccc(OC)cc2)[C@@H]2C(=O)N(C)C(=O)[C@@H]21,,"inconclusive: 89.1 µM [inhibitor, single point]"
Cc1[nH]n(-c2ccc(Cl)cc2)c(=O)c1C(=O)c1ccccc1,,"inconclusive: 56.2 µM [inhibitor, partial curve, poor fit]"
Cc1ccc(NC(=O)c2cc(-n3cnnc3)ccc2Cl)cc1,inactive: 14.8%,
CNC(=S)N/N=C/c1ccc(-c2cccc(C(=O)O)c2)o1,inactive: 47.8%,
COC(=O)c1c(C)[nH]c(C(=O)CSc2nnnn2-c2ccccc2)c1C,,"inconclusive: 11.2 µM [inhibitor, partial curve, poor fit]"
Cc1ccc2nc(COc3ccccc3NC(=O)c3ccc(F)cc3)cc(=O)n2c1,,active: 89.1 µM
Cc1cccc(NC(=O)CSc2ncnc3sc(C)c(C)c23)n1,,"inconclusive: 28.2 µM [inhibitor, full curve]"
CCOC(=O)[C@H]1[C@H]2COc3ccccc3[C@@H]2N2C(=O)c3c(C)cc(C)cc3NC(=O)[C@@]12C,inactive: 16.2%,
COc1ccc(CNC(=O)COC(=O)CCOc2ccc(C)cc2)cc1,,"inconclusive: 89.1 µM [inhibitor, single point]"
O=C(O)c1ccc(N/N=C/C(Br)=C/c2ccccc2)cc1,,"inconclusive: 11.2 µM [inhibitor, partial curve, poor fit]"
CCN1c2ccccc2-c2nc3ccccc3n2C1c1ccccn1 (centres undefined),,"inconclusive: 0.794 µM [inhibitor, full curve, poor fit]"
COc1ccc(C(=O)O/N=C(/c2ccccc2)c2ccncc2)cc1OC,,"inconclusive: 79.4 µM [inhibitor, partial curve, poor fit]"
COc1ccc(/C=C/C(=O)Nc2nc(-c3cccs3)ns2)cc1,inactive: 9.81%,
O=[N+]([O-])c1cccc2c(Br)[nH]nc12,inactive: -3.36% [at 58.9 µM],
Cc1oc(C(=O)O)cc1CSc1nnc(-c2ccccc2)n1C,,"inconclusive: 89.1 µM [inhibitor, single point]"
COc1ccc(NC(=O)COC(=O)c2ccc(C)c(S(=O)(=O)N3CCCCC3)c2)cc1,,"inconclusive: 50.1 µM [inhibitor, single point]"
NS(=O)(=O)c1ccc2nc(NC(=O)c3ccc(Br)o3)sc2c1,,"inconclusive: 31.6 µM [inhibitor, partial curve, poor fit]"
O=C(NCCO)c1cc2cc(Cl)cc(Cl)c2oc1=O,inactive: 57.3%,
COC(=O)C[C@H]1c2cc(F)ccc2S(=O)(=O)N1Cc1ccccc1OC,,"inconclusive: 100 µM [inhibitor, partial curve, poor fit]"

# Source: PubChem BioAssay AID588590 (National Center for Advancing Translational Sciences (NCATS), 2011)
